Test results reported in the supplement of paper PMC3334620.
Whole data set: some 33,000 sequences, median “E-score (-0.5 to 0.5)” near -0.0059, cut for the highest 2% near 0.26. The list shows a part of the results.

The sequences below were run against T1, Cin5 (UniProt P40917) (assay: PBM E-score (8-mer binding enrichment) (E-score (-0.5 to 0.5)); higher = stronger / more preferred TF binding). Conditions: protein concentration: 100 nM; construct: GST-full length.
T1 sequence: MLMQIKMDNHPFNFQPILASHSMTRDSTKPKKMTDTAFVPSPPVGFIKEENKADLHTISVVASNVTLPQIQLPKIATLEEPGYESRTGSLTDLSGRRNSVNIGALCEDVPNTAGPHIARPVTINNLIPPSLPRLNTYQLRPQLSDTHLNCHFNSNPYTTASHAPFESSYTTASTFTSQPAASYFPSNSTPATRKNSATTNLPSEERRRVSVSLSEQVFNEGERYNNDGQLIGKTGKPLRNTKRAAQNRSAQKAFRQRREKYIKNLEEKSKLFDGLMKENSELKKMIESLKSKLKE
Procedure: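 Universal 'all 10-mer' protein binding microarrays (Agilent AMADID 015681) probed with GST-tagged S. cerevisiae TFs (full-length or DBD) made by in vitro transcription/translation (PURExpress), about 100-200 nM. Bound TF was detected with fluorescent anti-GST. Each ungapped 8-mer (which stands for itself and its reverse complement) is scored by the PBM enrichment score (E-score), a modified Wilcoxon-Mann-Whitney statistic from -0.5 to +0.5, computed with the Universal PBM Analysis Suite. Scale: above 0.35 generally sequence-specific binding.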

Sequence	PBM E-score
AAAAGAGG	-0.0673
ATGCTCCA	0.0289
GAATTCGC	0.0864
GCTTTGAC	0.0402
ACCGGGCC	-0.201
ACCGACAC	-0.0656
AGGTATAC	0.0433
AGATGACT	-0.0493
AATATTCG	0.19
AGGCCTCG	-0.253
GCAAACGC	0.0409
GACGTGCA	-0.00619
CCCTACCC	-0.183
TCTCAGAA	-0.164
TGGGAAAA	-0.0319
CAATGCGC	0.145
AAGCATTA	0.127
AATATTGA	0.172
CTACGGGC	-0.321
TCAAGTGA	-0.00901
ACTTCGCA	-0.0303
ACACCGTA	-0.074
CCTCATCC	-0.257
CAGGTAGC	-0.171
TAATTGTA	0.207

Sequence	PBM E-score
AGAACCTC	-0.242
CTGGGGAA	-0.253
ATCATCAC	0.0889
CCGTAGCG	-0.251
ACTTTGTG	0.0798
GTTACATA	0.266
CGCCACGA	-0.177
ACCAAATA	0.183
ACGCGGGA	0.0706
GCCTGCAC	-0.247
GTTCGGTA	0.00084
TGGCCGAA	0.125
CTCTCATA	0.144
CGTCTACA	-0.266
AACGGATG	-0.0257
CGATGCTA	0.0659
CATGACAC	0.0954
CCAACATA	0.247
CAAGTCTG	-0.291
CGTGCGCA	-0.0833
CAGGGTGA	-0.173
CCCTAAGC	-0.145
AGTCGCTC	-0.175
CAGCATTC	0.0863
ATCTGAAC	-0.00257

Sequence	PBM E-score
ACTTCTGG	-0.129
GCCATCAA	0.0184
CGTCTTCC	-0.093
TAACTTGA	0.0688
CCTACGCA	-0.218
AGCCTACT	-0.14
ATCGTCCC	0.128
AACCTCGC	-0.0377
CCCTCCAG	-0.18
GACCGAGA	0.0263
GTTGCCGA	-0.0858
AAGCGTCG	-0.0645
AGGCAGCA	0.124
CGTGCCAG	-0.313
AAGGTGAT	0.00149
CCGACGAC	0.0356
AATATAAT	0.177
CCTTAGAC	-0.155
ACCACAAA	0.103
CTCCATTA	-0.0341
CAGCAAAC	0.113
CCCTACTA	-0.0774
GATATGTA	0.189
TTAGCGAA	0.022
CATTGAAG	-0.139

A few values from above.
Entry for AAAAGAGG under PBM E-score: -0.0673
Entry for CAGGTAGC under PBM E-score: -0.171
Entry for ACCGGGCC under PBM E-score: -0.201
Entry for ATCGTCCC under PBM E-score: 0.128
Entry for CCGACGAC under PBM E-score: 0.0356
Entry for AGTCGCTC under PBM E-score: -0.175

(cont.)

Sequence	PBM E-score
CGGCTCGC	0.0606
ACTTTTAT	0.0105
AATAAGAT	0.161
TAGCGTGA	0.0415
TGGGTACA	-0.0384
GGGTAATA	0.122
ATCATTTG	0.156
CGATACGA	-0.172
GAAGTAGA	0.0964
ACAAGCAT	0.0402
ATGCTGAC	0.0871
CGATGCTC	-0.0947
TCACTGCA	0.142
TAAACGGA	0.154
AGCCACAG	-0.212
CCCCTACC	-0.0814
ACAAAAAG	0.103
CAATTCCA	0.0576
CGTTATGC	0.0541
CTTACTGA	0.176
CCCGATAG	-0.0593
ATCTACAC	0.108
CGGCCTAC	-0.0333
ACTTTGTA	-0.0203
GTGCACAA	-0.145

Sequence	PBM E-score
ATTGTCTG	0.133
ATGGTCGG	-0.0755
AGTACCGC	-0.0393
CAGAAAGC	0.0825
AAGTCCGT	-0.187
ACGTCGAA	-0.0427
GGTTTAAA	0.0618
CAATATAG	0.225
AGGCATAA	-0.0173
CTGCACTA	0.178
ACTAGGAC	-0.0324
AACTCTGA	0.182
AGATCTTG	-0.019
AACCAGAA	0.084
GAAAGTGA	0.0444
CTGCTAGC	-0.29
CTGAATTA	0.15
AAATTACT	0.227
AGCGCAAT	0.0704
CCGACCAC	-0.00291
TCACAGCA	0.0686
GAATTAGC	-0.0107
AACACACA	0.0624
TGCGCAAA	-0.0242
GAGATCAC	-0.0171

Sequence	PBM E-score
AGAAGTAC	-0.0322
AAAGTAAT	0.201
GCGGTACC	-0.0411
GTCGTGAA	-0.29
TGCCAGCA	-0.0807
ACCTCCGC	0.0474
CAGACCAA	-0.0126
CAAGGTTA	0.00409
AATAATTG	0.0887
CAAGCACA	-0.0819
CTTGTTCA	0.096
ATAACGAA	0.294
AAAGTATA	0.176
ACAGTGGG	-0.111
CCGTACGG	-0.323
AACGGCGG	-0.126
CAACAGGG	-0.0967
AGCGACCG	-0.00272
AGAATAAA	0.153
ACAGAGTG	0.0202
GACGGCTA	-0.0568
AGGGACAT	0.106
AATGATAT	0.226
GTGCCTAA	-0.136
TAAGAATA	-0.0126

Sequence	PBM E-score
ATGCGTCG	-0.0112
CATGCCCG	0.104
GCAAAATA	0.137
GCAATAGC	0.183
CTTCTTCA	-0.0149
GGTCGACC	0.217
CGCAATGA	0.101
ATCAGTAA	0.215
CATCATAA	0.139
AACGGCCC	-0.192
CCGTGGTA	-0.13
CCAGAAAA	0.136
CTAATGAC	-0.0506
CAGTAAAA	0.112
ATCGTGAA	-0.0335
ACGGTATC	0.0408
CCGATAGA	-0.056
CCTTTAGA	-0.24
CAACAACG	-0.0665
CCATGACA	0.0493
CTGCTGGA	-0.128
ATAAACTC	0.186
ACCTATTA	0.267
ACAAGCCA	-0.0348
CAGTATCG	-0.0427

Sequence	PBM E-score
ATTCATAA	0.147
CCGCACAG	-0.0131
CGGCAAGC	-0.103
CCCTGGCG	-0.112
AGGCAATG	0.00872
CTCGTGCC	-0.12
GACCTTAA	-0.0985
CTATATCC	0.181
AGGGTGAC	0.0387
ATATCCTC	0.192
CGACATTC	0.0145
AGAGTACT	-0.102
CAACTTGG	0.0918
AGGGTGAG	-0.157
GCCTCCCC	-0.122
CTCGTCGA	-0.037
AACTGAAT	-0.0709
GCAGACGC	-0.19
AAGGGGTC	-0.243
GAGGTACA	0.0674
CTATTCGC	0.128
GTAATCAA	0.392
AACTATCT	0.209
CCCCCTGC	-0.397
AGTCCTGC	-0.0878

Sequence	PBM E-score
CTGAGCAC	-0.151
AGTTTAGA	0.14
AAACACGT	-0.122
ACAAGTCG	-0.16
ACAGATCC	0.145
CCTATAAG	0.00639
AGGTGGAA	0.0494
AATCAATT	0.196
ATACGTCC	-0.114
AGCTAGCG	-0.17
AGGATACC	-0.0578
AGGCACTA	-0.186
CAAGCAAC	0.0396
ACCGAAGA	0.0871
CTCGGCAA	-0.058
AATTCTAG	0.00871
ATTGGCTA	0.112
GTAACGTA	0.129
CTTTATCC	-0.0117
